logP: -4.22
Structure (SMILES): NCCC[C@H](N)C(=O)O
